From paper PMC12713375
No constants are given. Whether binding was seen depends on the method and setting. Binding can be weak; no strength is given.

Legend:
[1] = target: full-length FlhF, purified (P. aeruginosa PAO1); assay: dynamic light scattering; 0.01 mM each of FlhF and FliG, 25 mM Tris pH 8, 10 mM MgCl2; FlhF preincubated on ice for 40 minutes with 10-fold GMPPNP, then 45 minutes with FliG; both purified
[2] = target: full-length FlhF, purified (P. aeruginosa PAO1); assay: dynamic light scattering; 0.01 mM each of FlhF and FliG (1:1), 25 mM Tris pH 8, 10 mM MgCl2; no nucleotide; hydrodynamic diameters, Malvern Zetasizer; both purified

B1: full-length FliG, purified (protein, UniProt Q51464 1-338)
chain: MSENRLAAKLTKVDKAAILLLSLGETDAAQVLRHMGPKEVQRVGVAMASMRNVHREQVEQVMGEFVEVVGDQTSLGVGADGYIRKMLTQALGEDKANNLIDRILLGGSTSGLDSLKWMEPRAVADVIRYEHPQIQAIVVAYLDPDQAAEVLSHFDHKVRLDIVLRVSSLNTVQPSALKELNLILEKQFAGNSNATRTTMGGVKRAADIMNYLDSSIEGQLMDSIREVDEDLSGQIEDLMFVFDNLADVDDRGIQALLREVSSDVLVLALKGSDEAIREKVFKNMSKRAAELLRDDLEAKGPVRVSEVEGAQKEILTIARRMAESGDIVLGGKGGEEMI
binding [1]: binds
binding [2]: binds
